Reference: PubChem BioAssay AID1224830 (NIAID, 2016)
The whole screen tested about 18,000 reagents; this is an unselected part. Over the whole deposit, about 2,900 (16%) got an active call. 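Calls are made per well; low scores hint the gene aids the LPS response, high scores that it dampens it.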 Repeated entries: four replicate wells of each siRNA pool.

Test: 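Genes whose knock-down alters the TNF-alpha reporter response to LPS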 (primary screen)
Cell system: human THP-1 monocytic leukaemia cells, TNF dual-luciferase reporter clone, PMA-differentiated to macrophage-like cells
Knock-down reagent: siRNA pool against human genes, 50 nM
Time to read-out: LPS for 4 h, given about 3 days after siRNA transfection
Conditions: bacterial LPS (TLR4 ligand), 10 ng/ml
Read-out: 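TNF firefly reporter luminescence divided by renilla, normalised to the plate median, then turned into a robust z-score for each replicate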
Reading the numbers: TNF reporter robust z-score: higher = stronger TNF reporter response to LPS
Rule for the call: 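a well is active when its z-score exceeds 2.8 or falls below -1.5; control wells carry no call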

gene	TNF reporter robust z-score	Call
ZNF84	0.69	inactive
ZNF84	0.41	inactive
ZNF84	1.02	inactive
ZNF84	1.58	inactive
PDE7A	-0.68	inactive
PDE7A	-0.7	inactive
PDE7A	0.65	inactive
PDE7A	-0.65	inactive
PRDM6	1.42	inactive
PRDM6	0.1	inactive
PRDM6	0.62	inactive
PRDM6	0.6	inactive
SAXO6	0.6	inactive
SAXO6	0.78	inactive
SAXO6	0.46	inactive
SAXO6	1.9	inactive
PNRC2	6.86	active
PNRC2	1.11	inactive
PNRC2	0.82	inactive
PNRC2	-0.01	inactive
ARHGAP28	1.08	inactive
ARHGAP28	-0.43	inactive
ARHGAP28	2.05	inactive
ARHGAP28	3.17	active
FTCD	-0.26	inactive
FTCD	-0.4	inactive
FTCD	-0.48	inactive
FTCD	-1.02	inactive
MTRFR	-0.35	inactive
MTRFR	-0.42	inactive
MTRFR	0.71	inactive
MTRFR	0.3	inactive
TMEM139	0.16	inactive
TMEM139	1.4	inactive
TMEM139	0.72	inactive
TMEM139	1.7	inactive
POMT1	1.13	inactive
POMT1	2.39	inactive
POMT1	0.91	inactive
POMT1	0.7	inactive
DLG2	0.61	inactive
DLG2	1.11	inactive
DLG2	0.34	inactive
DLG2	1.68	inactive
OSTN	-0.29	inactive
OSTN	1.05	inactive
OSTN	-0.58	inactive
OSTN	0.75	inactive
RECQL	0.88	inactive
RECQL	-0.67	inactive
RECQL	0.53	inactive
RECQL	1.04	inactive
CFAP20	-0.54	inactive
CFAP20	0.04	inactive
CFAP20	-1.04	inactive
CFAP20	-0.41	inactive
IL36A	-0.36	inactive
IL36A	-0.9	inactive
IL36A	-0.77	inactive
IL36A	-0.83	inactive
GRSF1	-0.73	inactive
GRSF1	-0.46	inactive
GRSF1	-0.65	inactive
GRSF1	-0.43	inactive
RTN3	0.44	inactive
RTN3	2.65	inactive
RTN3	2.93	active
RTN3	-0.98	inactive

12 entries already listed, ordered by “TNF reporter robust z-score”, ascending.
gene	TNF reporter robust z-score	Call
CFAP20	-1.04	inactive
IL36A	-0.9	inactive
IL36A	-0.83	inactive
IL36A	-0.77	inactive
GRSF1	-0.73	inactive
CFAP20	-0.54	inactive
GRSF1	-0.46	inactive
CFAP20	-0.41	inactive
IL36A	-0.36	inactive
CFAP20	0.04	inactive
RECQL	0.53	inactive
RECQL	1.04	inactive

The list goes on:
gene	TNF reporter robust z-score	Call
LBHD1	-1.16	inactive
LBHD1	-0.95	inactive
LBHD1	-1.74	active
LBHD1	-1	inactive
SLC22A4	0.12	inactive
SLC22A4	0.71	inactive
SLC22A4	1.88	inactive
SLC22A4	0.1	inactive
DOLK	1.37	inactive
DOLK	1.44	inactive
DOLK	0.1	inactive
DOLK	0.88	inactive
MBD5	-1.13	inactive
MBD5	-0.6	inactive
MBD5	-0.72	inactive
MBD5	0.97	inactive
SLC1A5	0.25	inactive
SLC1A5	-0.16	inactive
SLC1A5	0.08	inactive
SLC1A5	-0.06	inactive
H2AC15	0.43	inactive
H2AC15	1.09	inactive
H2AC15	1.11	inactive
H2AC15	0.91	inactive
DOCK9	4.87	active
DOCK9	1.35	inactive
DOCK9	-0.55	inactive
DOCK9	0.02	inactive
TSTD2	1.85	inactive
TSTD2	0.4	inactive
TSTD2	0.75	inactive
TSTD2	0.93	inactive
PIGC	1.72	inactive
PIGC	1.09	inactive
PIGC	1.32	inactive
PIGC	1.77	inactive
CDH26	-0.82	inactive
CDH26	-1.43	inactive
CDH26	-1.19	inactive
CDH26	1.34	inactive
ESCO2	0.79	inactive
ESCO2	0.41	inactive
ESCO2	0.62	inactive
ESCO2	-0.75	inactive
DGKK	-0.8	inactive
DGKK	-1.19	inactive
DGKK	-0.14	inactive
DGKK	-0.58	inactive
SSBP3	-0.94	inactive
SSBP3	0	inactive
SSBP3	-0.12	inactive
SSBP3	0.01	inactive
TMEM125	-0.33	inactive
TMEM125	1.42	inactive
TMEM125	1.08	inactive
TMEM125	0.7	inactive
RPS18	-0.29	inactive
RPS18	-0.95	inactive
RPS18	-0.59	inactive
RPS18	0.11	inactive
AKR7A2	-0.52	inactive
AKR7A2	1	inactive
AKR7A2	-0.64	inactive
AKR7A2	0.03	inactive
CS	-0.31	inactive
CS	0.48	inactive
CS	0.54	inactive
CS	-0.25	inactive
TOR2A	-0.58	inactive
TOR2A	-0.96	inactive
TOR2A	-0.76	inactive
TOR2A	0.3	inactive
